This series addresses Sis10b wild-type (Sulfolobus islandicus REY15A) (UniProt F0NHH1). Briefly: EMSA. As to conditions: 25°C, affinities similar to 55°C set, Kd only in figure; EMSA: 20 mM HEPES-NaOH pH 7.0, 1 mM DTT, 100 ug/ml BSA, 6% glycerol, 30 min at 25, 37 or 55°C; gel in 0.5x TBE at the same temperature; recombinant protein; label: 5' 32P on top strand. In general terms: Mobility shift assays separate free from complexed probe on a gel.

Chains of the proteins cited; added tags and fusions are not shown. Lines headed by an entry give the natural chain unless they say otherwise; changes in a name come on top.
UniProt F0NHH1: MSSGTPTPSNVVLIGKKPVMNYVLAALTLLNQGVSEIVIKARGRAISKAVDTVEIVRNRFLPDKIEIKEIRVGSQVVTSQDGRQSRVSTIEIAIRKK

For at least one entry, the source does not settle the construct or the ends of the probe. At least one verdict rests on a figure or table, not on a statement of the authors.

Turning to “GGUAAGAGCACCCGACUGCUCUUCC / GGAAGAGCAGUCGGGUGCUCUUACC [25-bp dsRNA]”, the binding result is recorded as “binds”.

Values taken from publication PMC7498313.
